Measured data: PubChem BioAssay AID1259294 (Sanger Institute, 2017)
Purpose: 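Genes whose silencing strengthens the effect of BYL719, cetuximab or trametinib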 (follow-up of hits). Cell system: human CL40 colorectal cancer cells. Reagents: single siRNA against human genes. Treatment: anchor drug or DMSO vehicle added to knock-down cells: BYL719 1 µM, cetuximab 5 µg/ml, trametinib 10 nM. Measured: 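Cell viability after knock-down with vehicle or drug, each replicate set against non-targeting pool 2 and then averaged; synergy score weighs the observed combined effect against the expected one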. Direction: synergy score with trametinib and synergy score with BYL719 and synergy score with cetuximab: higher = stronger synergistic (synthetic lethal) killing; viability, knock-down alone: higher = more cells survive knock-down. Rule for the call: 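Called synergy with a drug when the synergy score is above 0.10 for at least one anchor drug, otherwise no synergy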. Meaning of the calls: active = synergy with a drug; inactive = no synergy.
The deposit covers 160 reagents; below is a part drawn at random. Of all reagents, 43 (27%) got an active call. 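Calls mean synergy with any one drug, not lethality of knock-down alone; BYL719 1 µM, cetuximab 5 µg/ml, trametinib 10 nM barely cut viability.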 Entries without a mark were called inactive. Reagents against one gene are numbered here. Viability is capped at 1. Further read-outs or replicates are left out here. No sequences are given here. Not given: the amount of reagent, the time to read-out.

no.	gene knocked down	siRNA no.	synergy score with trametinib	synergy score with BYL719	synergy score with cetuximab	viability, knock-down alone (fraction of control)
1	PIK3CA	1	0.178 (active)	-0.023	-0.0114	1
2	PIK3CA	2	0.0116	-0.17	-0.114	0.472
3	PIK3CA	3	0.158 (active)	0.0209	-0.19	0.906
4	PIK3CA	4	0.0149	-0.418	-0.208	0.704
5	NLK	1	0.00601	-0.111	-0.184	0.876
6	NLK	2	0.159 (active)	-0.02	0.00575	0.719
7	NLK	3	0.0278	-0.292	0.0849	0.928
8	NLK	4	0.00133	-0.0755	-0.125	0.956
9	SYNCRIP	1	0.0841	-0.086	0.0218	0.646
10	SYNCRIP	2	0.152 (active)	-0.00932	-0.106	1
11	SYNCRIP	3	0.104 (active)	0.0198	-0.165	0.613
12	SYNCRIP	4	-0.0499	-0.223	-0.228	0.679
13	CDKN2D	1	0.104 (active)	-0.0654	-0.13	0.586
14	CDKN2D	2	0.176 (active)	-0.0633	-0.0753	0.967
15	CDKN2D	3	-0.061	-0.327	-0.106	1
16	CDKN2D	4	-0.00935	-0.0974	-0.221	0.308
17	GRK5	1	0.134 (active)	-0.0117	-0.133	0.97
18	GRK5	2	0.124 (active)	-0.0588	-0.0984	0.857
19	GRK5	3	0.152 (active)	0.0106	-0.182	0.915
20	GRK5	4	0.0796	-0.0191	-0.000505	0.955

Look-ups from the entries so far:
Value for SYNCRIP #3 under “synergy score with cetuximab”: -0.165 (active)
GRK5 #1, viability, knock-down alone (fraction of control) → 0.97 (active)
Under “synergy score with BYL719”, CDKN2D #4 has -0.0974

Next records follow:
no.	gene knocked down	siRNA no.	synergy score with trametinib	synergy score with BYL719	synergy score with cetuximab	viability, knock-down alone (fraction of control)
21	BRAF	1	-0.0254	-0.238	-0.251	0.456
22	BRAF	2	0.00507	-0.0404	-0.0334	0.441
23	BRAF	3	0.00662	-0.0627	0.0476	0.753
24	BRAF	4	0.0257	-0.155	-0.147	0.954
25	CSNK2A2	1	-0.00993	-0.0152	-0.106	1
26	CSNK2A2	2	-0.0508	-0.151	-0.0296	0.212
27	CSNK2A2	3	0.0514	0.016	-0.0779	0.573
28	CSNK2A2	4	0.0422	-0.17	0.0841	0.356
29	IRAK3	1	0.105 (active)	0.0666	-0.108	0.68
30	IRAK3	2	0.0618	-0.0296	-0.265	0.738
31	IRAK3	3	-0.127	-0.193	-0.258	0.648
32	IRAK3	4	0.194 (active)	0.0029	0.00462	1
33	ACVR1	1	-0.0337	-0.235	-0.106	1
34	ACVR1	2	-0.0159	-0.237	-0.106	1
35	ACVR1	3	-0.0119	-0.277	-0.106	1
36	ACVR1	4	0.0678	-0.243	-0.106	1
